These are yes or no findings as the source states them, for the method shown. In cells and extracts the contact can be indirect. Some results given as binding are weak or reduced against the parent protein; the word gives no strength. For some assays here: Tags and fused reporters may be left off the sequences shown.
What was measured:
[1] = target: T1, GST-ULK1 (UniProt O75385); experiment: pull-down; purified GST or GST-ULK1 incubated with in vitro-translated FLAG-tagged CHK2; Western blot; only the target purified
T1 sequence: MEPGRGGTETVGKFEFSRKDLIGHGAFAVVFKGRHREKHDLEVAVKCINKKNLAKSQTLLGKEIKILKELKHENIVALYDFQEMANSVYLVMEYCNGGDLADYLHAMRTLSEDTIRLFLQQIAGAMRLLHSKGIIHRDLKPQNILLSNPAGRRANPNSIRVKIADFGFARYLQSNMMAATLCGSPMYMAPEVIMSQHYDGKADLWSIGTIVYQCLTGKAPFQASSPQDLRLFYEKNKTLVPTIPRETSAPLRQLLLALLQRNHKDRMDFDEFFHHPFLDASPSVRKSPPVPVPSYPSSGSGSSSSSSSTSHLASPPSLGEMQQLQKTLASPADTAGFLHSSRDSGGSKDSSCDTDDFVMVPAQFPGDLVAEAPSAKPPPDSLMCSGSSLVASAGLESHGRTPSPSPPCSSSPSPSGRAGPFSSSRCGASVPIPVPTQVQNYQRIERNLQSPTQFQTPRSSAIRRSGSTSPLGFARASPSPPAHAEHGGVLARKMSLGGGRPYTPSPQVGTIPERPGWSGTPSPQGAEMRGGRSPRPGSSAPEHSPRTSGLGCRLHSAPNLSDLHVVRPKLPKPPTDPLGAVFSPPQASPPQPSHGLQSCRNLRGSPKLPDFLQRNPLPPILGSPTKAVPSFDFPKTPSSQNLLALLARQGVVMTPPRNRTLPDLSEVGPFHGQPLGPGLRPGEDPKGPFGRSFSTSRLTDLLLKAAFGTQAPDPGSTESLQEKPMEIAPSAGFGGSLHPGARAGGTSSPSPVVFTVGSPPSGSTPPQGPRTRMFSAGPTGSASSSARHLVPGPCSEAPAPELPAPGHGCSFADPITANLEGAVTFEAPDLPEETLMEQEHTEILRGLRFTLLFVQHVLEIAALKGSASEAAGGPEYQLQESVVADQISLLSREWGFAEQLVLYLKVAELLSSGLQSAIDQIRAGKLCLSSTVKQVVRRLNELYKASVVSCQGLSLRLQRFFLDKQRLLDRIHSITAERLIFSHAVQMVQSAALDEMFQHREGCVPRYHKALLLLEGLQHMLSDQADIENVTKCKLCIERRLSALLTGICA

The chains behind the UniProt entries cited, without tags or fusion partners.
UniProt O96017: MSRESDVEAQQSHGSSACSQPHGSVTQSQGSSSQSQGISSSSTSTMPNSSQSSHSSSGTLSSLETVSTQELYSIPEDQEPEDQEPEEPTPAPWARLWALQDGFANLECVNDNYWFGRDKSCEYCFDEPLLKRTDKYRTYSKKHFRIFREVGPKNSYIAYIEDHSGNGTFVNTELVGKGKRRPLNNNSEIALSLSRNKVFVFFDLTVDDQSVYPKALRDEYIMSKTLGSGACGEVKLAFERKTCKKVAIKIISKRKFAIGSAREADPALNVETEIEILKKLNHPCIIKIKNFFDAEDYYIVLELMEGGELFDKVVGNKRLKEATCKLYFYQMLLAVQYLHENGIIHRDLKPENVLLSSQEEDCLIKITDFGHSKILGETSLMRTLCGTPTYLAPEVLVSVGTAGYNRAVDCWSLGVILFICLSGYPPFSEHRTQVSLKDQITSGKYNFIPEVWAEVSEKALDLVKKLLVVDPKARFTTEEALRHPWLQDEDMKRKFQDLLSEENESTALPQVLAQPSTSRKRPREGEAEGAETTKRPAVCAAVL

[2] = target: T2, Serine/threonine-protein kinase ULK1, endogenous (human (endogenous in HCT116)) (UniProt O75385); experiment: co-IP; endogenous proteins in HCT116 lysates; immunoprecipitated with ULK1 antibody or CHK2 antibody (rabbit IgG as control) on protein A/G beads, overnight 4 °C, Western blot; cells untreated or treated with EBSS, H2O2 (500 μM), NAC (2 mM) then EBSS, CHK2 inhibitor (20 μM) then EBSS
T2 sequence: T1 sequence

Substance | binding [1] | binding [2]
FLAG-tagged CHK2, in vitro translated (from UniProt O96017 1-543) | binds | 
Cell cycle checkpoint kinase 2 (CHK2), endogenous (from UniProt O96017 1-543) |  | binds

Source: publication PMC9219861
